Results on seven molecules are retold here after patent US20240343809A1 (EXCELMAB, published 2024).

Positions count from the first letter of the chain named. No constants are given. Whether binding was seen depends on the method and setting. Some binding calls cover weakened binding; strength is not graded here.

To fix the notation:
B1: affinity-matured B7-H3 antibody 50A1 (antibody, V domains shown)
VH: QVQLVQSGAEVKKPGSSVKVSCKASGGTFSNYAINWVRQAPGQGLEWMGGIIPLFGTANYAQKFQGRVTITADESTSTAYMELSSLRSDDTAVYYCARDQVVPLSGVNFGMDVWGQGTTVTVSS
VL: DIQMTQEPSLTTSPGGTVTLTCRSSTGAVTTSNYANWVQEKPGQAPRGLIGGTNKRAPGTPARFSGSLIGGKAALTITGVQPEDEAIYFCALWYSNLWVFGGGTKLEIK
notes: Full antibody expressed in 293F cells, protein A purified; VH assembled from the framework and CDR entries
B2: affinity-matured B7-H3 antibody 48D10 (antibody, V domains shown)
VH: B1 VH with F29R, S30P, N31A, Y32A, A33L, P103A, L104T
VL: B1 VL
notes: as for B1
B3: affinity-matured B7-H3 antibody 42F7 (antibody, V domains shown)
VH: B1 VH with F29R, S30P, N31A, Y32A, A33L, P103A, L104T
VL: B1 VL
notes: as for B1
B4: B7-H3×CD3 bispecific antibody 42F7×CD3 (bispecific antibody, not shown: a dimerising Fc or GST)
heavy 1: B1 VH with F29R, S30P, N31A, Y32A, A33L, P103A, L104T
heavy 2: EVQLVESGGGLVQPGGSLKLSCAASGFTFNTYAMNWVRQAPGKGLEWVARIRSKYNNYATYYADSVKDRFTISRDDSKNTAYLQMNNLKTEDTAMYYCVRHGNFGTSYVSWFAYWGQGTLVTVSS
light: B1 VL
B5: B7-H3×CD3 bispecific antibody 46H7×CD3 (bispecific antibody, not shown: a dimerising Fc or GST)
heavy 1: B1 VH with Q100R, V101F, V102T, L104R
heavy 2: B4 heavy 2
light: B1 VL
B6: B7-H3×CD3 bispecific antibody 49E1×CD3 (bispecific antibody, not shown: a dimerising Fc or GST)
heavy 1: B1 VH with L54V, G56R, T57S, A58V, P103A, L104T
heavy 2: B4 heavy 2
light: B1 VL
B7: B7-H3×CD3 bispecific antibody 43G11×CD3 (bispecific antibody, not shown: a dimerising Fc or GST)
heavy 1: B1 VH with F29L, S30R, N31P, Y32V, A33L, P103A, L104T
heavy 2: B4 heavy 2
light: B1 VL

The first assay concerns the target T1, human B7-H3 antigen, recombinant extracellular domain (ECD) (29-461) (human) (UniProt Q5ZPR3).
T1 sequence (looked up): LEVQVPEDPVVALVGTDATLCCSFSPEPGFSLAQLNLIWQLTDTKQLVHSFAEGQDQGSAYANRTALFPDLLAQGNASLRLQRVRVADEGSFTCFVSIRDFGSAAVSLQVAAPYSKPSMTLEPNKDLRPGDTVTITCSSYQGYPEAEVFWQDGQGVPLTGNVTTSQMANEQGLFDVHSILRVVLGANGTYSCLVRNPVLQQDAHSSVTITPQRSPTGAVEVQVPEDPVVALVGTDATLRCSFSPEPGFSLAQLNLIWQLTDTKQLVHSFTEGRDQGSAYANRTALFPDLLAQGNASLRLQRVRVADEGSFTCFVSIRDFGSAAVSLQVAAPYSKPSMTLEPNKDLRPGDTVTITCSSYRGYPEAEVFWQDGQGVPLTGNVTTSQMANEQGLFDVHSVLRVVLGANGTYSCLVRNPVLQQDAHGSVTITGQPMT
The assay can be described thus: ELISA, coated human B7-H3 antigen.
In the case of B1, the binding result is listed as “binds”. Consider B2, for which the binding result was “binds”. On the same count and under the same terms, the entry for B3 is “binds”.

The target in the next assay is T1, human B7-H3 antigen, recombinant extracellular domain (ECD) (29-461) (human). The assay can be described thus: ELISA, B7-H3 antigen coated at 1 µg/mL.
For the molecule B4, the binding result is “binds”.

Consider B5, for which the binding result is “binds”. The same measure, in the same setting: the entry for B6 is “binds”; for B7 it is “binds”.

The next assay has the same target. The assay can be described thus: summary of the foregoing ELISA and FACS results.
With B1, the binding result was “binds”. The same measure, in the same setting: the entry for B3 is “binds”.
